Source: PubChem BioAssay AID504467 (National Center for Advancing Translational Sciences (NCATS), 2011)
Out of some 330,000 compounds screened, about 7,700 (2.3%) were called active. Inconclusive means that the source gave no clear call. Such entries were picked first, then a sample of the others. Calls follow the shape of the dose curve; as a rule, active = well fitted inhibition curve with a large enough effect; inconclusive = small, poorly fitted or top-dose-only effect, or effect the other way; inactive = flat fitted curve, though single readings scatter. A potency beside an inconclusive call is a rough fit, not a confirmed value.
Potency is read from the fitted curve at half-maximal effect.

Experiment: qHTS screen for small molecules that inhibit ELG1-dependent DNA repair in human embryonic kidney (HEK293T) cells expressing luciferase-tagged ELG1; also: nearly all actives have a fitted effect of over 55% in size
Details: HEK293T ELG1-luciferase reporter, luminescence, 16 h, DNA damage induced by 5-fluorouridine; series mostly up to 46.1 µM
Method in brief: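 Reporter activity after DNA damage by 5-fluorouridine is monitored. Compound-treated cells incubate 16 hr at 37 °C, then ONE-Glo is added for 30 min before luminescence reading.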
For O=C(CNC(=O)c1ccc(Cl)cc1Cl)OCC(=O)c1ccc2c(c1)OCCO2, the Potency was inconclusive: 18.4 µM [activator, partial curve, poor fit]. For CCOc1ccc2nc(-c3cc(NC(C)=O)ccc3O)sc2c1, the Potency was inconclusive: 6.51 µM [activator, single point]. For COc1ccc(C(=O)N/C(=C\c2cn(C)c3ccccc23)C(=O)NCCCN2CCOCC2)cc1, the Potency was “inactive”. For Cc1cc(C)n(-c2nc3nonc3nc2Nc2cccc(C)c2C)n1, the Potency was “inactive”. For Cc1ccc(C(=O)CCS(=O)(=O)c2ccc(Br)cc2)cc1, the Potency was “inactive”. In the case of CC(=O)NCCC(=O)Nc1nc(-c2ccc3ccccc3c2)cs1, the Potency is reported as inconclusive: 23.1 µM [activator, single point]. In the case of O=C(/C=C/c1cn(CC(O)CN2CCCCC2)c2ccccc12)c1ccccc1 (centres undefined), the Potency is reported as “inactive”. For Fc1ccc(N/N=C/c2ccc(N3CCOCC3)cc2)c(F)c1, the Potency was inconclusive: 3.66 µM [activator, full curve]. For CC1CCCC(C)N1S(=O)(=O)c1ccc(S(=O)(=O)NCCc2ccncc2)cc1 (centres undefined), the Potency was “inactive”. For CCC(CO)Oc1cc(NCc2ccc(O)cc2)c2ncn(C(C)C)c2c1 (centres undefined), the Potency was inconclusive: 23.1 µM [activator, partial curve, poor fit]. In the case of Cc1ccc(C2CC(c3ccco3)=NN2S(C)(=O)=O)cc1 (centres undefined), the Potency is reported as inconclusive: 14.6 µM [activator, partial curve]. With Cc1sc2nc(CSc3ccc([N+](=O)[O-])c(C(F)(F)F)c3)[nH]c(=O)c2c1C the Potency was “inactive”. For C#Cc1ccc(CN2CCC(N3CCC(C(=O)NCc4ccccn4)CC3)CC2)cc1, the Potency was inconclusive: 8.2 µM [inhibitor, partial curve]. In the case of Cc1ccc(C)c(NC(=S)N2CCN(c3ccccn3)CC2)c1, the Potency is reported as “inactive”. For COCCn1c(SCC(=O)Nc2ccc(S(=O)(=O)N3CCOCC3)cc2)nc2ccccc21, the Potency was inconclusive: 32.6 µM [inhibitor, partial curve, poor fit]. In the case of CCn1c2ccccc2c2cc(NC(=O)C(C)Oc3ccc(OC)cc3)ccc21 (centres undefined), the Potency is reported as inconclusive: 18.4 µM [inhibitor, single point]. For Cc1ccc(-c2cc(-c3ccccc3C)[nH]n2)c(O)c1, the Potency was inconclusive: 2.06 µM [activator, partial curve]. With Cc1nc2ccccc2c(N)c1C(=O)/C=C/c1ccccc1 the Potency was inconclusive: 25.9 µM [inhibitor, single point]. For CC(=O)Nc1ccc(SCc2ncc(-c3ccccc3)o2)cc1, the Potency was inconclusive: 6.51 µM [activator, partial curve]. With CCOC(=O)N1C(=O)C2(CCCCC2)N(c2ccccc2Cl)C1=S the Potency was inconclusive: 1.64 µM [inhibitor, full curve]. In the case of CCCn1nc(C(=O)N2CCc3ccccc3C2)c2ccccc2c1=O, the Potency is reported as inconclusive: 29.1 µM [inhibitor, single point]. For O=C(CCCSc1nc2ccccc2[nH]1)N1CCN(c2ccccc2)CC1, the Potency was active: 23.1 µM. For COC(=O)c1cc2ccsc2n1CC(=O)N(C)c1ccccc1, the Potency was “inactive”. For COc1ccc(CC(=O)O/N=C(\N)c2ccccn2)cc1OC, the Potency was inconclusive: 23.1 µM [activator, single point]. For O=C(N/N=C/c1c[nH]c2ccccc12)C1COc2ccccc2O1 (centres undefined), the Potency was inconclusive: 2.91 µM [inhibitor, full curve]. With Cc1ccc(CNC(=O)/C=C/c2ccc(S(=O)(=O)N3CCOCC3)cc2)cc1 the Potency was “inactive”. With Cn1c(=O)c2c(nc(CN3CCN(c4ccccc4F)CC3)n2CCN2CCOCC2)n(C)c1=O the Potency was inconclusive: 23.1 µM [inhibitor, partial curve]. With COc1ccc(-c2nn(-c3ccccc3)cc2CNC[C@H]2O[C@@H](n3cnc4c(N)ncnc43)[C@H](O)[C@@H]2O)cc1 the Potency was inconclusive: 18.3 µM [inhibitor, partial curve]. With O=C(NCCC1=CCCCC1)c1ccc(CN2CCOCC2)cc1 the Potency was inconclusive: 2.06 µM [activator, full curve]. With O=C(Nc1nccs1)NC1CCCCC1 the Potency was inconclusive: 20.6 µM [activator, partial curve, poor fit]. In the case of CCn1cc(Cl)c(C(=O)Nc2cc(C(=O)OC)cc(C(=O)OC)c2)n1, the Potency is reported as inconclusive: 3.66 µM [inhibitor, partial curve, poor fit]. In the case of COc1ccc(S(=O)(=O)N(C)c2ccc(C(=O)N3CCN(c4ccccc4)CC3)cc2)cc1OC, the Potency is reported as active: 13 µM. With Cc1c(Cc2ccccc2)c(=O)oc2cc(OCC(=O)c3ccccc3)ccc12 the Potency was inconclusive: 20.6 µM [inhibitor, single point]. With COCCN1Cc2cccc(C(=O)Nc3ccc(C)cc3)c2C1=O the Potency was “inactive”. In the case of CCc1c(C)c2cc(Cl)c(O)c(CN3CCCC3)c2oc1=O, the Potency is reported as “inactive”. In the case of CCN1CCN(C(=O)c2cc3cc(Cl)ccc3[nH]2)CC1, the Potency is reported as inconclusive: 18.3 µM [activator, partial curve]. In the case of Cc1ccccc1-n1c(-c2csc(C)c2C)n[nH]c1=S, the Potency is reported as inconclusive: 18.4 µM [activator, single point]. For CC1N=C2c3ccccc3N=C(SCc3cc(=O)n4cc(Cl)ccc4n3)N2C1=O (centres undefined), the Potency was inconclusive: 18.4 µM [inhibitor, single point]. For Cc1ccc(C(=O)Nc2ccncc2)cc1[N+](=O)[O-], the Potency was “inactive”. With CC(C)Cc1nc2oc3c(NCC4CCCO4)ncnc3c2c2c1CCC2 (centres undefined) the Potency was active: 11.6 µM. In the case of Cn1c(CC(=O)Nc2ccccc2)nnc1SCC(=O)c1ccccc1, the Potency is reported as inconclusive: 7.08 µM [activator, full curve, poor fit]. For Cc1ccc(NC(=O)Cn2ccc(=O)[nH]c2=O)cc1, the Potency was inconclusive: 23.1 µM [activator, partial curve, poor fit]. With CNC(=O)CSCc1cnn(-c2ccccc2)c1-n1cccc1 the Potency was inconclusive: 16.4 µM [activator, partial curve, poor fit]. With Cc1ccc2cccc(S(=O)(=O)NC3CCS(=O)(=O)C3)c2n1 (centres undefined) the Potency was “inactive”. For CN(C)c1ccc(C(=O)C(O)c2ccccc2)cc1 (centres undefined), the Potency was “inactive”. With CCC1CN(C(=O)NCc2ccccc2)c2cc(Cl)ccc2O1 (centres undefined) the Potency was “inactive”. For COc1ccc(CNC(=O)Nc2cccc(C(F)(F)F)c2)cc1OC, the Potency was inconclusive: 25.9 µM [inhibitor, single point]. With c1cn(CCCNc2ncnc3sc4c(c23)CCC4)cn1 the Potency was inconclusive: 14.1 µM [inhibitor, single point]. With CCOC(=O)c1ccc(NC(=O)CSc2ccc(-c3ccccn3)nn2)cc1 the Potency was “inactive”. In the case of CCOc1ccc2[nH]c3c(N4CCc5ccccc5C4)ncnc3c2c1, the Potency is reported as active: 18.3 µM. With CCOC(=O)C(NC(=O)NCc1ccccc1OC)(OCC)C(F)(F)F (centres undefined) the Potency was inconclusive: 14.6 µM [activator, partial curve, poor fit]. With O=C(CCCSc1ccccc1)Nc1ccc(Cl)c(S(=O)(=O)N2CCOCC2)c1 the Potency was inconclusive: 20.6 µM [inhibitor, single point]. With O=C(/C=C/c1ccc(Cl)cc1Cl)NC(=S)Nc1ccccn1 the Potency was inconclusive: 4.61 µM [activator, partial curve]. For O=[n+]1cc(-c2ccc(Cl)cc2)n([O-])c2c1CCC2, the Potency was inconclusive: 0.259 µM [activator, single point]. In the case of O=C1NC(=O)C(CC(=O)N(Cc2cccs2)C2(C(=O)NC3CCCC3)CCCCC2)N1 (centres undefined), the Potency is reported as “inactive”. With NS(=O)(=O)c1ccc(O)c(NC(=O)c2ccc([N+](=O)[O-])cc2)c1 the Potency was “inactive”. In the case of Cc1nc2sc(C(c3ccco3)N3CCOCC3)c(O)n2n1 (centres undefined), the Potency is reported as inconclusive: 32.6 µM [activator, partial curve, poor fit]. With CCOC(=O)c1c(C)[nH]c(C)c1S(=O)(=O)NCC1CCN(Cc2cccc(F)c2)CC1 the Potency was inconclusive: 29.1 µM [activator, single point]. For Cc1nnc(C)n1/N=C/c1ccc(-c2ccccc2Cl)o1, the Potency was inconclusive: 13 µM [activator, partial curve, poor fit]. With Cc1cc(C)c2c(c1)SC1=NC(c3ccccc3)(C(F)(F)F)NC(=O)N12 (centres undefined) the Potency was inconclusive: 29.1 µM [activator, single point]. With Cc1ccc(OCC(=O)NNC(=O)C2CCCO2)c(C)c1 (centres undefined) the Potency was inconclusive: 29.1 µM [activator, single point]. With C(=N/Nc1cc(N2CCOCC2)nc(N2CCOCC2)n1)/c1ccccc1 the Potency was inconclusive: 11.6 µM [inhibitor, partial curve, poor fit]. With COc1cccc(-c2cc(C(=O)NCc3cccs3)no2)c1 the Potency was inconclusive: 8.2 µM [activator, partial curve]. For Cc1c(C(=O)N2CCCC(C(F)(F)F)C2)oc2ccccc12 (centres undefined), the Potency was inconclusive: 23.1 µM [activator, single point]. With Cc1sc2nc(CN3CCOCC3)nc(N3CCN(S(=O)(=O)c4ccccc4)CC3)c2c1C the Potency was inconclusive: 25.9 µM [inhibitor, partial curve, poor fit]. With COCC(=O)N(C)c1nnc(-c2ccccn2)s1 the Potency was inconclusive: 4.61 µM [activator, partial curve, poor fit]. In the case of CC(=O)N1CCc2cc(Br)cc(S(=O)(=O)N3CCCCCC3)c21, the Potency is reported as inconclusive: 16.4 µM [inhibitor, partial curve, poor fit]. With C=CCn1c(COc2ccccc2)nnc1SCC(=O)Nc1ccc2c(c1)OCCO2 the Potency was “inactive”. In the case of COc1cc(C(=O)/C=C/c2cccnc2)ccc1O, the Potency is reported as inconclusive: 29.1 µM [inhibitor, single point].
